Measurements reported in PubChem BioAssay AID1224830 (NIAID, 2016)
Purpose: 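Regulators of TLR4 signalling towards TNF-alpha in macrophage-like cells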 (primary screen). Cells: human THP-1 monocytic leukaemia cells, TNF dual-luciferase reporter clone, PMA-differentiated to macrophage-like cells. Reagents: siRNA pool against human genes, 50 nM. Time to read-out: LPS for 4 h, given about 3 days after siRNA transfection. Conditions: bacterial LPS (TLR4 ligand), 10 ng/ml. Measured: 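TNF firefly reporter luminescence divided by renilla, normalised to the plate median, then turned into a robust z-score for each replicate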. Direction: TNF reporter robust z-score: higher = stronger TNF reporter response to LPS. Call rule: 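a well is active when its z-score exceeds 2.8 or falls below -1.5; control wells carry no call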.
This is a random part of about 18,000 deposited reagents. In the full data, about 2,900 (16%) were called active. 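Calls are made per well; low scores hint the gene aids the LPS response, high scores that it dampens it.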 Repeated entries: four replicate wells of each siRNA pool.

TNF reporter robust z-score,Call,target gene,PubChem SID
-0.53,inactive,CYC1 (cytochrome c1),SID315448195
0.56,inactive,CYC1 (cytochrome c1),SID315448195
0,inactive,CYC1 (cytochrome c1),SID315448195
-0.74,inactive,CYC1 (cytochrome c1),SID315448195
0.85,inactive,PTS (6-pyruvoyltetrahydropterin synthase),SID315450979
1.38,inactive,PTS (6-pyruvoyltetrahydropterin synthase),SID315450979
-0.31,inactive,PTS (6-pyruvoyltetrahydropterin synthase),SID315450979
1.09,inactive,PTS (6-pyruvoyltetrahydropterin synthase),SID315450979
1.24,inactive,CACNA2D4,SID315461083
1.36,inactive,CACNA2D4,SID315461083
1,inactive,CACNA2D4,SID315461083
1.99,inactive,CACNA2D4,SID315461083
-0.99,inactive,LILRA1 (leukocyte immunoglobulin like receptor A1),SID315454543
-0.31,inactive,LILRA1 (leukocyte immunoglobulin like receptor A1),SID315454543
-0.03,inactive,LILRA1 (leukocyte immunoglobulin like receptor A1),SID315454543
-0.72,inactive,LILRA1 (leukocyte immunoglobulin like receptor A1),SID315454543
0.58,inactive,CHAC2 (ChaC glutathione specific gamma-glutamylcyclotransferase 2),SID315465008
0.56,inactive,CHAC2 (ChaC glutathione specific gamma-glutamylcyclotransferase 2),SID315465008
-0.41,inactive,CHAC2 (ChaC glutathione specific gamma-glutamylcyclotransferase 2),SID315465008
-0.22,inactive,CHAC2 (ChaC glutathione specific gamma-glutamylcyclotransferase 2),SID315465008
0.89,inactive,MACROH2A1 (macroH2A.1 histone),SID315453380
-0.14,inactive,MACROH2A1 (macroH2A.1 histone),SID315453380
0.13,inactive,MACROH2A1 (macroH2A.1 histone),SID315453380
0.64,inactive,MACROH2A1 (macroH2A.1 histone),SID315453380
-0.32,inactive,IER3 (immediate early response 3),SID315452888
0.23,inactive,IER3 (immediate early response 3),SID315452888
-1.75,active,IER3 (immediate early response 3),SID315452888
-1.21,inactive,IER3 (immediate early response 3),SID315452888
2.13,inactive,PLPPR4 (phospholipid phosphatase related 4),SID315453649
0.09,inactive,PLPPR4 (phospholipid phosphatase related 4),SID315453649
0.93,inactive,PLPPR4 (phospholipid phosphatase related 4),SID315453649
1.96,inactive,PLPPR4 (phospholipid phosphatase related 4),SID315453649
0.18,inactive,OR5I1 (olfactory receptor family 5 subfamily I member 1),SID315454369
1,inactive,OR5I1 (olfactory receptor family 5 subfamily I member 1),SID315454369
1.98,inactive,OR5I1 (olfactory receptor family 5 subfamily I member 1),SID315454369
2.98,active,OR5I1 (olfactory receptor family 5 subfamily I member 1),SID315454369
-2.28,active,CCR2 (C-C motif chemokine receptor 2),SID315447981
-1.91,active,CCR2 (C-C motif chemokine receptor 2),SID315447981
-1.1,inactive,CCR2 (C-C motif chemokine receptor 2),SID315447981
-1.86,active,CCR2 (C-C motif chemokine receptor 2),SID315447981
-0.05,inactive,GPATCH1 (G-patch domain containing 1),SID315457401
-0.12,inactive,GPATCH1 (G-patch domain containing 1),SID315457401
1.24,inactive,GPATCH1 (G-patch domain containing 1),SID315457401
0.76,inactive,GPATCH1 (G-patch domain containing 1),SID315457401
0.3,inactive,CFB (complement factor B),SID315447541
1.16,inactive,CFB (complement factor B),SID315447541
-0.82,inactive,CFB (complement factor B),SID315447541
-1.03,inactive,CFB (complement factor B),SID315447541
0.79,inactive,"MBTPS1 (membrane bound transcription factor peptidase, site 1)",SID315452770
-0.2,inactive,"MBTPS1 (membrane bound transcription factor peptidase, site 1)",SID315452770
0.63,inactive,"MBTPS1 (membrane bound transcription factor peptidase, site 1)",SID315452770
-1.12,inactive,"MBTPS1 (membrane bound transcription factor peptidase, site 1)",SID315452770

Reagents listed above marked active:
TNF reporter robust z-score,Call,target gene,PubChem SID
-1.75,active,IER3 (immediate early response 3),SID315452888
2.98,active,OR5I1 (olfactory receptor family 5 subfamily I member 1),SID315454369
-2.28,active,CCR2 (C-C motif chemokine receptor 2),SID315447981
-1.91,active,CCR2 (C-C motif chemokine receptor 2),SID315447981
-1.86,active,CCR2 (C-C motif chemokine receptor 2),SID315447981

Continued.
TNF reporter robust z-score,Call,target gene,PubChem SID
0.86,inactive,ADAMDEC1 (ADAM like decysin 1),SID315456018
0.85,inactive,ADAMDEC1 (ADAM like decysin 1),SID315456018
-0.41,inactive,ADAMDEC1 (ADAM like decysin 1),SID315456018
1.31,inactive,ADAMDEC1 (ADAM like decysin 1),SID315456018
1.26,inactive,SESN1 (sestrin 1),SID315455991
0.42,inactive,SESN1 (sestrin 1),SID315455991
0.47,inactive,SESN1 (sestrin 1),SID315455991
1.31,inactive,SESN1 (sestrin 1),SID315455991
0.11,inactive,COPS4 (COP9 signalosome subunit 4),SID315456504
0.97,inactive,COPS4 (COP9 signalosome subunit 4),SID315456504
0.54,inactive,COPS4 (COP9 signalosome subunit 4),SID315456504
-0.07,inactive,COPS4 (COP9 signalosome subunit 4),SID315456504
-0.9,inactive,SLFN5 (schlafen family member 5),SID315462745
-0.06,inactive,SLFN5 (schlafen family member 5),SID315462745
-0.14,inactive,SLFN5 (schlafen family member 5),SID315462745
0.22,inactive,SLFN5 (schlafen family member 5),SID315462745
0.75,inactive,EOMES (eomesodermin),SID315452474
1.18,inactive,EOMES (eomesodermin),SID315452474
-0.1,inactive,EOMES (eomesodermin),SID315452474
0.24,inactive,EOMES (eomesodermin),SID315452474
-0.32,inactive,DCT (dopachrome tautomerase),SID315448262
-0.18,inactive,DCT (dopachrome tautomerase),SID315448262
0.2,inactive,DCT (dopachrome tautomerase),SID315448262
-0.03,inactive,DCT (dopachrome tautomerase),SID315448262
-0.67,inactive,NDUFAF2 (NADH:ubiquinone oxidoreductase complex assembly factor 2),SID315460965
0.39,inactive,NDUFAF2 (NADH:ubiquinone oxidoreductase complex assembly factor 2),SID315460965
-0.74,inactive,NDUFAF2 (NADH:ubiquinone oxidoreductase complex assembly factor 2),SID315460965
0.17,inactive,NDUFAF2 (NADH:ubiquinone oxidoreductase complex assembly factor 2),SID315460965
-0.09,inactive,BGLAP (bone gamma-carboxyglutamate protein),SID315447543
-0.44,inactive,BGLAP (bone gamma-carboxyglutamate protein),SID315447543
-1.09,inactive,BGLAP (bone gamma-carboxyglutamate protein),SID315447543
-0.36,inactive,BGLAP (bone gamma-carboxyglutamate protein),SID315447543
0.39,inactive,ANKRD34A (ankyrin repeat domain 34A),SID315463799
1.91,inactive,ANKRD34A (ankyrin repeat domain 34A),SID315463799
1.28,inactive,ANKRD34A (ankyrin repeat domain 34A),SID315463799
2.69,inactive,ANKRD34A (ankyrin repeat domain 34A),SID315463799
1.69,inactive,RANBP17 (RAN binding protein 17),SID315459040
1.06,inactive,RANBP17 (RAN binding protein 17),SID315459040
1.94,inactive,RANBP17 (RAN binding protein 17),SID315459040
1.47,inactive,RANBP17 (RAN binding protein 17),SID315459040
1.34,inactive,CCDC183 (coiled-coil domain containing 183),SID315460609
-0.8,inactive,CCDC183 (coiled-coil domain containing 183),SID315460609
-1.49,inactive,CCDC183 (coiled-coil domain containing 183),SID315460609
-0.62,inactive,CCDC183 (coiled-coil domain containing 183),SID315460609
0.17,inactive,GOSR1 (golgi SNAP receptor complex member 1),SID315453356
0.61,inactive,GOSR1 (golgi SNAP receptor complex member 1),SID315453356
-0.28,inactive,GOSR1 (golgi SNAP receptor complex member 1),SID315453356
-1,inactive,GOSR1 (golgi SNAP receptor complex member 1),SID315453356
0.47,inactive,GOLM1 (golgi membrane protein 1),SID315456606
-0.29,inactive,GOLM1 (golgi membrane protein 1),SID315456606
0.3,inactive,GOLM1 (golgi membrane protein 1),SID315456606
0.92,inactive,GOLM1 (golgi membrane protein 1),SID315456606
3.52,active,PVRIG (PVR related immunoglobulin domain containing),SID315459173
3.03,active,PVRIG (PVR related immunoglobulin domain containing),SID315459173
3.15,active,PVRIG (PVR related immunoglobulin domain containing),SID315459173
3.63,active,PVRIG (PVR related immunoglobulin domain containing),SID315459173
5.92,active,PRSS23 (serine protease 23),SID315454598
2.99,active,PRSS23 (serine protease 23),SID315454598
2.32,inactive,PRSS23 (serine protease 23),SID315454598
1.92,inactive,PRSS23 (serine protease 23),SID315454598
